The assay has as its system CD2F1 mice, L1210 leukemia ip, survival T/C. Nature of the assay: NCI In Vivo Anticancer Drug Screen. Data for tumor model L1210 Leukemia (intraperitoneal) in CD2F1 (CDF1) mice. The conditions noted are these: higher T/C = longer survival. A digest of the protocol:
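Read-out first: treated-group measurement over vehicle-control measurement, expressed as a ratio. Animals bore a transplanted tumor line and were dosed with compound or vehicle.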

The mark [1] stands for this setting: T/C endpoint: mean survival time, dose: 400.0 mg/kg/injection, schedule: Q04DX003 (ip), vehicle: saline with Tween-80.
The mark [2] stands for this setting: T/C endpoint: mean survival time, dose: 400.0 mg/kg/injection, schedule: Q01DX001 (ip), vehicle: saline with Tween-80.
The mark [3] stands for this setting: T/C endpoint: mean survival time, dose: 400.0 mg/kg/injection, schedule: Q04DX002 (ip), vehicle: saline with Tween-80.
The mark [4] stands for this setting: T/C endpoint: mean survival time, dose: 100.0 mg/kg/injection, schedule: Q01DX001 (ip), vehicle: saline with Tween-80.
Where [5] appears, read: T/C endpoint: mean survival time, dose: 300.0 mg/kg/injection, schedule: Q01DX001 (ip), vehicle: saline.
[6] abbreviates: T/C endpoint: mean survival time, dose: 150.0 mg/kg/injection, schedule: Q01DX001 (ip), vehicle: saline.
Setting [7] is: T/C endpoint: mean survival time, dose: 400.0 mg/kg/injection, schedule: Q01DX001 (ip), vehicle: saline.
The mark [8] stands for this setting: T/C endpoint: mean survival time, dose: 100.0 mg/kg/injection, schedule: Q04DX002 (ip), vehicle: saline with Tween-80.
Setting [9] is: T/C endpoint: mean survival time, dose: 200.0 mg/kg/injection, schedule: Q04DX002 (ip), vehicle: saline with Tween-80.
[10] abbreviates: T/C endpoint: median survival time, dose: 400.0 mg/kg/injection, schedule: Q01DX001 (ip), vehicle: water.

In PubChem BioAssay AID256 (DTP/NCI, 2004) one finds T/C and survivor count data, which are given here for 28 compounds.

The list is a part of this screen's results and no random one: it is rich in T/C values a quarter to a half above the control, in often repeated tests (any T/C) and in doses without a T/C. Further doses and runs are listed elsewhere. T/C gives the treated animals as a percentage of the vehicle group. Some doses have a count of surviving animals in place of a T/C: the source files T/C as zero there, which appears to mark a toxic dose or a test without result, not a measured value. Some doses without a T/C left all or most animals alive at the check, yet need not have been tolerated: the source hardly ever lists a survival T/C far under the control, and the zero likely stands for such cases as well. Survivors were counted at the toxicity check, usually on the fifth day, unless a day is given; later deaths do not show. Schedule codes are those of the source, read here as Q, the interval in days (D) or hours (H), X, the number of doses. Some entries hold several experiments; the values are given in rising order. Signs of the kind (2×) stand for listed records that agree. Where survival is the endpoint, this PubChem deposit counts one and a half times the control or more as active, and values a quarter to a half above the control carry no call in these data; other NCI protocols may use other cut-offs. Some T/C values are followed by the survivors on the day toxicity was checked, most often the fifth; where none is given, no animal had died by that day.

Consider `CCCCCNC(=O)CCC(NC(=O)c1ccc(N(C)Cc2cnc3nc(N)nc(N)c3n2)cc1)C(=O)O` (centres undefined), for which the T/C is, setting by setting: (T/C endpoint: mean survival time, dose: 25.0 mg/kg/injection, schedule: Q01DX009 (ip), vehicle: sodium bicarbonate) 125 % of control; (T/C endpoint: mean survival time, dose: 33.0 mg/kg/injection, schedule: Q01DX009 (ip), vehicle: sodium bicarbonate) 128 % of control; (T/C endpoint: mean survival time, dose: 50.0 mg/kg/injection, schedule: Q01DX009 (ip), vehicle: sodium bicarbonate) 130 % of control; (T/C endpoint: mean survival time, dose: 75.0 mg/kg/injection, schedule: Q01DX009 (ip), vehicle: sodium bicarbonate) 135 % of control; (T/C endpoint: mean survival time, dose: 112.0 mg/kg/injection, schedule: Q01DX009 (ip), vehicle: sodium bicarbonate) 132 % of control.

For `c1ccc2c[n+]3cc4ccccc4cc3cc2c1`, the survivor count (T/C endpoint: mean survival time, dose: 50.0 mg/kg/injection, schedule: Q04DX003 (ip), vehicle: saline) was 4 of 6.

Regarding `CN1CCC(=C(C#N)c2ccccc2)CC1`, where the note is “T/C endpoint: mean survival time, dose: 50.0 mg/kg/injection, schedule: Q01DX009 (ip), vehicle: saline”, the survivor count was 2 of 6.

`CC(=O)N(/C=C\C=C\c1sc2ccccc2[n+]1C)c1ccccc1`: the survivor count is, setting by setting: (T/C endpoint: mean survival time, dose: 50.0 mg/kg/injection, schedule: Q01DX009 (ip), vehicle: other) 2 of 6; (T/C endpoint: mean survival time, dose: 100.0 mg/kg/injection, schedule: Q01DX009 (ip), vehicle: other) 1 of 6; (T/C endpoint: mean survival time, dose: 200.0 mg/kg/injection, schedule: Q01DX009 (ip), vehicle: other) 0 of 6.

Turning to `CN(C)N=Nc1ccc(C#N)cc1C(N)=O`, the T/C (T/C endpoint: mean survival time, dose: 37.5 mg/kg/injection, schedule: Q01DX009 (ip), vehicle: Klucel (hydroxypropylcellulose) (HPC)) was 128 % of control; the T/C (T/C endpoint: mean survival time, dose: 75.0 mg/kg/injection, schedule: Q01DX009 (ip), vehicle: Klucel (hydroxypropylcellulose) (HPC)) was 125 and 133 % of control. Moreover, the survivor count reads like this: (T/C endpoint: mean survival time, dose: 150.0 mg/kg/injection, schedule: Q01DX009 (ip), vehicle: Klucel (hydroxypropylcellulose) (HPC)) 5 of 6; (T/C endpoint: mean survival time, dose: 300.0 mg/kg/injection, schedule: Q01DX009 (ip), vehicle: Klucel (hydroxypropylcellulose) (HPC)) 0 of 6.

In the case of `O=c1oc(-c2cccc([N+](=O)[O-])c2)nc2ccccc12`, under setting [1], the survivor count is recorded as 0 of 6.

Consider `Cc1ccccc1N=Nc1ccc(O)cc1`, for which the survivor count under setting [2] is 3 of 6.

Consider `CCCCc1ccc(-n2c(C)c(COC(=O)NC)c(COC(=O)NC)c2C)cc1`, for which the T/C (T/C endpoint: mean survival time, dose: 25.0 mg/kg/injection, schedule: Q01DX009 (ip), vehicle: Klucel (hydroxypropylcellulose) (HPC)) was 127 % of control.

As to `O=C(O)C(=O)O.[NH-]CC(O)CN(CC(O)CO)c1ccccc1.[Pt+2]` (centres undefined), the survivor count is 4 of 6 (T/C endpoint: median survival time, dose: 80.0 mg/kg/injection, schedule: Q04DX003 (ip), vehicle: distilled water + Tween-80); 0 of 6 (T/C endpoint: median survival time, dose: 160.0 mg/kg/injection, schedule: Q04DX003 (ip), vehicle: distilled water + Tween-80); 0 of 6 (T/C endpoint: median survival time, dose: 320.0 mg/kg/injection, schedule: Q04DX003 (ip), vehicle: distilled water + Tween-80).

For `NCc1ncn[nH]1`, for the setting “T/C endpoint: mean survival time, dose: 400.0 mg/kg/injection, schedule: Q04DX003 (ip), vehicle: saline”, the survivor count was 4 of 6.

`CCN(CC)C(=O)Nc1cc(Cl)ccc1Cl`: under setting [3], the survivor count is on record as 3 of 3.

With `Nc1nc(N)c(-c2ccc(Cl)cc2)c(COc2cccc(NC(=O)CBr)c2)n1`, the survivor count was 1 of 6 (T/C endpoint: mean survival time, dose: 50.0 mg/kg/injection, schedule: Q01DX001 (ip), vehicle: saline with Tween-80); 0 of 6 under setting [4]; 1 of 6 (T/C endpoint: mean survival time, dose: 200.0 mg/kg/injection, schedule: Q01DX001 (ip), vehicle: saline with Tween-80).

As for `COC1=CC(=O)C(OC)=C(OC)C1=O`, the survivor count (T/C endpoint: mean survival time, dose: 100.0 mg/kg/injection, schedule: Q01DX009 (ip), vehicle: saline with Tween-80) is 0 of 6.

As to `O=c1[nH][nH]c(=O)c2c1oc1c(=O)[nH][nH]c(=O)c12`, the survivor count under setting [4] is 2 of 6.

As for `CN(C)N=C1CCCC1`, under setting [5], the survivor count is given as 3 of 6.

Regarding `NC(N)=N/N=C(\c1ccc(C(F)(F)F)cc1)c1ccc(Cl)c(Cl)c1`, the survivor count is recorded as 0 of 6 under setting [6] and 0 of 6 under setting [5].

In the case of `Nc1ncc2c(n1)SCC2`, the survivor count runs as follows: (T/C endpoint: mean survival time, dose: 100.0 mg/kg/injection, schedule: Q01DX001 (ip), vehicle: saline) 1 of 6; under setting [7], 1 of 6.

For `O=C1C2CC3C1C1(Cl)C(Cl)C4(Cl)C2C3C1(Cl)C4(Cl)Cl` (centres undefined), the survivor count reads like this: (T/C endpoint: mean survival time, dose: 150.0 mg/kg/injection, schedule: Q01DX001 (ip), vehicle: other) 3 of 6; (T/C endpoint: mean survival time, dose: 300.0 mg/kg/injection, schedule: Q01DX001 (ip), vehicle: other) 0 of 6.

Turning to `O=C1CC2OCCC3CN4CCC56c7ccccc7N1C5C2C3CC46` (centres undefined), the survivor count under setting [5] was 0 of 6.

Regarding `CCOc1nc2nc[nH]c(=O)c2cc1C#N`, the survivor count is, setting by setting: (T/C endpoint: mean survival time, dose: 50.0 mg/kg/injection, schedule: Q04DX002 (ip), vehicle: saline with Tween-80) 1 of 3; under setting [8], 0 of 3; under setting [9], 0 of 3; under setting [2], 0 of 6.

In the case of `C[P+]1(c2ccccc2)c2ccccc2Oc2ccccc21`, the survivor count is given as 0 of 6 under setting [6] and 0 of 6 under setting [5].

With `CCN1/C(=C/C=C/C=C/c2sc3ccccc3[n+]2CC)Sc2ccccc21`, the T/C (T/C endpoint: mean survival time, dose: 0.19 mg/kg/injection, schedule: Q01DX009 (ip), vehicle: saline) was 126 % of control. Besides, the survivor count (T/C endpoint: mean survival time, dose: 0.39 mg/kg/injection, schedule: Q01DX009 (ip), vehicle: saline) is recorded as 1 of 3.

Turning to `O=NN(CCCl)C(=O)/N=N/C(=O)N(CCCl)N=O`, under “T/C endpoint: median survival time, dose: 200.0 mg/kg/injection, schedule: Q01DX001 (ip), vehicle: water”, the T/C was 126 and 131 % of control [5 of 6 alive]. For the same compound, under setting [10], the T/C was 144 % of control [4 of 6 alive] and the survivor count is 1 of 6.

As to `O=C(Nc1c(Oc2ccc(Cl)cc2Cl)ccc(Cl)c1S(=O)(=O)O)Nc1c(Oc2ccc(Cl)cc2Cl)ccc(Cl)c1S(=O)(=O)O`, the survivor count under setting [7] is on record as 0 of 6.

With `Nc1ncnc2c1c(C(=O)NO)cn2C1OC(CO)C(O)C1O` (centres undefined), the T/C was 148 % of control (T/C endpoint: mean survival time, dose: 12.5 mg/kg/injection, schedule: Q01DX001 (ip), vehicle: water) and 146 % of control (T/C endpoint: mean survival time, dose: 25.0 mg/kg/injection, schedule: Q01DX001 (ip), vehicle: water).

Regarding `Nc1nc(N)c2cc(CCc3ccccc3)ccc2n1`, the survivor count was 3 of 6 (T/C endpoint: mean survival time, dose: 100.0 mg/kg/injection, schedule: Q01DX009 (ip), vehicle: Klucel (hydroxypropylcellulose) (HPC)); 1 of 6 (T/C endpoint: mean survival time, dose: 100.0 mg/kg/injection, schedule: Q04DX003 (ip), vehicle: saline with Tween-80); 0 of 6 (T/C endpoint: mean survival time, dose: 200.0 mg/kg/injection, schedule: Q01DX009 (ip), vehicle: Klucel (hydroxypropylcellulose) (HPC)); 1 of 6 (T/C endpoint: mean survival time, dose: 200.0 mg/kg/injection, schedule: Q04DX003 (ip), vehicle: saline with Tween-80); 1 of 6 under setting [1].

On to `CCCCCCCC/C=C/CCCCCC1CCCC(C)N1` (centres undefined), for which the survivor count under setting [8] is given as 0 of 3; the survivor count under setting [9] was 0 of 3 and 3 of 3; the survivor count under setting [3] was 0 of 3 (2×).

With `CCCCCCC[CH2][Sn]1([CH2]CCCCCCC)[O]CC2OC(n3cc(C)c(=O)[nH]c3=O)CC2[O]1` (centres undefined), the survivor count by setting is: (T/C endpoint: mean survival time, dose: 100.0 mg/kg/injection, schedule: Q01DX005 (ip), vehicle: other) 3 of 6; (T/C endpoint: mean survival time, dose: 200.0 mg/kg/injection, schedule: Q01DX005 (ip), vehicle: other) 0 of 6.
